Compound in this experiment: Cc1cc(ccc1-c1ccccc1)C(=O)N1CCCN(CC1)C(=O)CCl [compound 10]
Nature of the experiment: probe-labelled cysteine peptide fold change vs DMSO (competition) (log2 fold change); higher = less target engagement (more negative = stronger competition). The following applies: THP-1, incubation time: 4 h.

By UniProt entry, the sequences of proteins in these tests, tags left out. Where a name states a change or a piece, a line headed by the entry shows the natural chain unless it says otherwise.
UniProt P30260, whole entry, looked up: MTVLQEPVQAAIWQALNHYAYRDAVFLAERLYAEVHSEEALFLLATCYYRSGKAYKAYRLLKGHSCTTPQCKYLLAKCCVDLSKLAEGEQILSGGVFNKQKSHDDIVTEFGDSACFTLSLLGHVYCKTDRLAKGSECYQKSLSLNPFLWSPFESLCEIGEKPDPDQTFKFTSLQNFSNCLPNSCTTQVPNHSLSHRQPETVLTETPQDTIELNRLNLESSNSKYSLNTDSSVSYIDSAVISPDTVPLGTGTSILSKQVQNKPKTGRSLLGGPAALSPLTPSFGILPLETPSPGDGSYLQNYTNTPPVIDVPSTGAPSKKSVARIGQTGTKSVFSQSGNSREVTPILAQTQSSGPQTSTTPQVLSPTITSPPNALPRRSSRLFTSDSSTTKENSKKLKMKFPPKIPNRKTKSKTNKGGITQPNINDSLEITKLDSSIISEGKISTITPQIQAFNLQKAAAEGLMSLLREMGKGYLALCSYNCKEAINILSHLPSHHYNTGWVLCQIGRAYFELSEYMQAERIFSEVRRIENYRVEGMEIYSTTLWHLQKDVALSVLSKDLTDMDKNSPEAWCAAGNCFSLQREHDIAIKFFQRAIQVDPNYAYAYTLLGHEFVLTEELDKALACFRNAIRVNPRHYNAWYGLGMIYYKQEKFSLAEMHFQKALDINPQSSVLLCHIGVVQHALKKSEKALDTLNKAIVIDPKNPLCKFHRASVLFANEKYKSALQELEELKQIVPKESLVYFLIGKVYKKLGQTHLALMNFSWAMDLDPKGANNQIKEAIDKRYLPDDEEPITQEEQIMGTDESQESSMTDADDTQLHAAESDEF
UniProt P19397: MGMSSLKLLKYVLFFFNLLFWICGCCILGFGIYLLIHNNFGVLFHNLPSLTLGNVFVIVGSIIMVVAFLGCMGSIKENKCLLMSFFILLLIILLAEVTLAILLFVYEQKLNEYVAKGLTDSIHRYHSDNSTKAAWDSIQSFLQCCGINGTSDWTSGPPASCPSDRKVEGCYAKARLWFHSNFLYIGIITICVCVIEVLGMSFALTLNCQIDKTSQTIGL
UniProt Q12834, whole entry, looked up: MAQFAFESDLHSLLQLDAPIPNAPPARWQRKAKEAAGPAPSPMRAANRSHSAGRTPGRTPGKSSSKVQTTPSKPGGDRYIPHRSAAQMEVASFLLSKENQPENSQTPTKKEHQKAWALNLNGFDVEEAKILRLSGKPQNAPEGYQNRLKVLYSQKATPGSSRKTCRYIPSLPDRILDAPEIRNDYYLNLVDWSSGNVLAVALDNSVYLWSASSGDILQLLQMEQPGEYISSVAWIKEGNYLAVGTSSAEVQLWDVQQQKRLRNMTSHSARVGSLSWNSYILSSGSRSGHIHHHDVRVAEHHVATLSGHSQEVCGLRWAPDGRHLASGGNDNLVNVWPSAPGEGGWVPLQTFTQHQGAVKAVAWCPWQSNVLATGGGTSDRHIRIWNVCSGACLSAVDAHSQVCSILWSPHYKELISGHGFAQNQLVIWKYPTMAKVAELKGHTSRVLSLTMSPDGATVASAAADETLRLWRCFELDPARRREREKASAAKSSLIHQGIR
UniProt Q9NYV4, whole entry, looked up: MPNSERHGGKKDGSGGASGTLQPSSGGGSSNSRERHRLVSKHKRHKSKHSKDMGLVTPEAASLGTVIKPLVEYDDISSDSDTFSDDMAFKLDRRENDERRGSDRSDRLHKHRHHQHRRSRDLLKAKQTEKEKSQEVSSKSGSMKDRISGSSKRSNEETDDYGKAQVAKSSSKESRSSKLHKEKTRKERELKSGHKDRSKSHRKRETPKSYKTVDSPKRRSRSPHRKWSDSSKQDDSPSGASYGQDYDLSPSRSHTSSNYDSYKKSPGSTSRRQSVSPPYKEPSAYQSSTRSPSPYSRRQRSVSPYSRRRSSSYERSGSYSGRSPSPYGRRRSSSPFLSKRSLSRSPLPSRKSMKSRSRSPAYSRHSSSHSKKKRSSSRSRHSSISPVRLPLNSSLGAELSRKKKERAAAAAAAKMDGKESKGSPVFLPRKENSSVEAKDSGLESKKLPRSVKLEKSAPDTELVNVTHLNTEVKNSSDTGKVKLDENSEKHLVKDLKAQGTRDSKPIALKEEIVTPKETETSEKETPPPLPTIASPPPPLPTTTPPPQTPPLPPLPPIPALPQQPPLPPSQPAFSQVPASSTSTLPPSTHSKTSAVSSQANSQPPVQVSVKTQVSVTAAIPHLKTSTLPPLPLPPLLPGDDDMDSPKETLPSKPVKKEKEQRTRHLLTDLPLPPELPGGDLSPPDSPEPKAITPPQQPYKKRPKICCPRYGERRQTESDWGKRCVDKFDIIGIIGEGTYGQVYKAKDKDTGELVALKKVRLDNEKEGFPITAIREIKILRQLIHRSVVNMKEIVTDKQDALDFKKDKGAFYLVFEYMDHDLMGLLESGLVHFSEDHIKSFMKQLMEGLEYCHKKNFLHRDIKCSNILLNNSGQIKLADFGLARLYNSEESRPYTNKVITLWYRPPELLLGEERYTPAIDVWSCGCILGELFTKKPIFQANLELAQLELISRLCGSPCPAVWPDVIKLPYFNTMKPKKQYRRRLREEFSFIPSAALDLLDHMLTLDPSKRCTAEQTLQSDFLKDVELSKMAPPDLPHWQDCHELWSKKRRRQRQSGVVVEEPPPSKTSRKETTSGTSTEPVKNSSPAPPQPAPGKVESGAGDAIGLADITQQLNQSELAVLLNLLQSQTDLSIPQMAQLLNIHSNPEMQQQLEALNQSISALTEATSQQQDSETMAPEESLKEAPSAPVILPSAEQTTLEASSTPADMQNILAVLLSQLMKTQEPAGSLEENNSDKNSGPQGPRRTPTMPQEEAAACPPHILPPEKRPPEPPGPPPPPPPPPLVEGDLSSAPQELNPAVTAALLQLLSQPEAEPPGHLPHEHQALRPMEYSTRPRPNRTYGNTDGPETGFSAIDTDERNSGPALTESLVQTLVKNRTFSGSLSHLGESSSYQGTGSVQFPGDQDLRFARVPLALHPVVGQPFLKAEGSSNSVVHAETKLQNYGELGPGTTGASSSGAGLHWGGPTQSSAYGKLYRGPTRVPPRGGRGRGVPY
UniProt Q96SN8: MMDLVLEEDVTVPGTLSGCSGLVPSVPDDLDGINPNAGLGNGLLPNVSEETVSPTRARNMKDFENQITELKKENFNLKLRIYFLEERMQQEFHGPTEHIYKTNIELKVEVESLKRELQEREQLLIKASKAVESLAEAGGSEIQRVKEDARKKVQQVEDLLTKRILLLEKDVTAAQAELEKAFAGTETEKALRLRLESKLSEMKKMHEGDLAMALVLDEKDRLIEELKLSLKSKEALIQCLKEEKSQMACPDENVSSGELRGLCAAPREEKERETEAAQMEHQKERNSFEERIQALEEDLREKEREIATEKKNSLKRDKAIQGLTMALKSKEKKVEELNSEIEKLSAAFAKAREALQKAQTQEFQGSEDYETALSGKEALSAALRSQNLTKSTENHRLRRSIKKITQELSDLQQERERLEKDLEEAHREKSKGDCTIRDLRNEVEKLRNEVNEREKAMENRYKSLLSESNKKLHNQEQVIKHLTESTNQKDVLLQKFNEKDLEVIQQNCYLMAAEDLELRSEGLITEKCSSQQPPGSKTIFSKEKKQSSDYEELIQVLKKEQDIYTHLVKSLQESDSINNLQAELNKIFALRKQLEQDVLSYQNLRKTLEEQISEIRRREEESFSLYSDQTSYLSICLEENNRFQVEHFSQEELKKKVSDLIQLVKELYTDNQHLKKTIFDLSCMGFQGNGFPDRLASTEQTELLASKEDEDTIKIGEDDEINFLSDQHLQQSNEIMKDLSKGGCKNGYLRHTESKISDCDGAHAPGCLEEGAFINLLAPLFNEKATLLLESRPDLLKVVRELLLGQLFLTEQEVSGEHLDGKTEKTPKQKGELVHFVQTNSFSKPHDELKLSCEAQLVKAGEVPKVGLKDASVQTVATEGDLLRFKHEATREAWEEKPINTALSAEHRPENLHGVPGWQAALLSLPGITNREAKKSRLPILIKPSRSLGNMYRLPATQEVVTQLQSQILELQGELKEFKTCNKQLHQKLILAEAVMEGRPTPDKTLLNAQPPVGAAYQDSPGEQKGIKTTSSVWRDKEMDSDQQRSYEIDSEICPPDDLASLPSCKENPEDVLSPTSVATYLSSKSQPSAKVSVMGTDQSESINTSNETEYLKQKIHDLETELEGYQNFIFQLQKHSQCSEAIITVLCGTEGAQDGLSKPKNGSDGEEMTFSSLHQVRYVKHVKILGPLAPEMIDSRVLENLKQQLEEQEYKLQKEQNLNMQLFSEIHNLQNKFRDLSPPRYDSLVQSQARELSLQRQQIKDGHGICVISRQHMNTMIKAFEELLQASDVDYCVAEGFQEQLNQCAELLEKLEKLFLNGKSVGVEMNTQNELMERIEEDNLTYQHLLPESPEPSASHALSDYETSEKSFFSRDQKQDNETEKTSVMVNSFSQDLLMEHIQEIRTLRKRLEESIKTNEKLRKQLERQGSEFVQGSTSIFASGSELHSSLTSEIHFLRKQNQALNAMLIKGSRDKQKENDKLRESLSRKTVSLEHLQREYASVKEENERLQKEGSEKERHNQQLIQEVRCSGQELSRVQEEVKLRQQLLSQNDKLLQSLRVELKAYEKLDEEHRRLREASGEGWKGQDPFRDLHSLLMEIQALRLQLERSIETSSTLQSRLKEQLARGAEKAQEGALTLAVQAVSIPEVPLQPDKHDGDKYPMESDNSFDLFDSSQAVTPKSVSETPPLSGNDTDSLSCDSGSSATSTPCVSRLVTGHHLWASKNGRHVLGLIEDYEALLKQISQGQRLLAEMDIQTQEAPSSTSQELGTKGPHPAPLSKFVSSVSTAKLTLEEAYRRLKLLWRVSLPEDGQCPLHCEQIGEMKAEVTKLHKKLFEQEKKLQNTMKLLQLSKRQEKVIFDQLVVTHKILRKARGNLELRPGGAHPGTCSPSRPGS
UniProt P42773: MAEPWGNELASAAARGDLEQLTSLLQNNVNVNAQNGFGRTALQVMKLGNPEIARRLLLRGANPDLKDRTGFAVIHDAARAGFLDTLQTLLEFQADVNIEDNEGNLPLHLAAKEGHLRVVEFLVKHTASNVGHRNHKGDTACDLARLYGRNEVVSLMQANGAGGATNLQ
UniProt P16070: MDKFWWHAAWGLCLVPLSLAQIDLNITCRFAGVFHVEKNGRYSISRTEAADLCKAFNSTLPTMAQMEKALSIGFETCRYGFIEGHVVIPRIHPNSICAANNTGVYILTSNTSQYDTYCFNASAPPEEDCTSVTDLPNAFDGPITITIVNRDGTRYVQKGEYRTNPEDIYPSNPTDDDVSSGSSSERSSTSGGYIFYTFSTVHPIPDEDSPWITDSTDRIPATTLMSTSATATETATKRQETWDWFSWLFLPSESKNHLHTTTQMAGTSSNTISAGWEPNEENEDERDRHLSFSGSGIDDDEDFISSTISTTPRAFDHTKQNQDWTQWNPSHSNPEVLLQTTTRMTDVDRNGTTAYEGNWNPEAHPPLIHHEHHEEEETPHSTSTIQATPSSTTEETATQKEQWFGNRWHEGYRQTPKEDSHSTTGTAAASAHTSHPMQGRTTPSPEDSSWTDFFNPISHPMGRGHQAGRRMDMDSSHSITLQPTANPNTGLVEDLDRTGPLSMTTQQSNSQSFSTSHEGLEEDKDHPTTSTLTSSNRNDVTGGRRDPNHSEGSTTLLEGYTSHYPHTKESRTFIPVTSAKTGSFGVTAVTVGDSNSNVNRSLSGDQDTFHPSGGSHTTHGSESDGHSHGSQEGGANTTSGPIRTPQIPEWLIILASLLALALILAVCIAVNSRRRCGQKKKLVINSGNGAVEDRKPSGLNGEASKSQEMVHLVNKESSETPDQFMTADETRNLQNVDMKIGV
UniProt Q9Y6A4: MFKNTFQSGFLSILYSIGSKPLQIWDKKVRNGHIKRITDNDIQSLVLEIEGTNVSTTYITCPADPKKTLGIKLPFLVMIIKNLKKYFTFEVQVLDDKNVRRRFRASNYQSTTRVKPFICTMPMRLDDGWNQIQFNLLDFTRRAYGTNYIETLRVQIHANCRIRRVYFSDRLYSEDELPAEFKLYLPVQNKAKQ

This is one part of the list.
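Note: competitive profiling in live THP-1 cells: cysteine peptides tagged with an iodoacetamide desthiobiotin (IA-DTB) probe, intensity after compound treatment relative to DMSO-treated cells.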

Turning to “CD300LF_Q8TDQ1_264_EDISYASLTLGAEDQEPTYCNMGHLSSHLPGR (UniProt Q8TDQ1)”, the “probe-labelled cysteine peptide fold change” value is 0.00191 (10 µM) and -0.274 (50 µM).
Taken in the same sequence, the figures for “CEP170_Q5SW79_30_EMIFVGRDDCELMLQSR (UniProt Q5SW79)” were -0.075 and 0.0343.
The matching figures for “CDC27_P30260_137_GSECYQK (UniProt P30260)”: -0.0928 and -0.0624.
Taken in the same sequence, the figures for “CD53_P19397_170_KVEGCYAK (UniProt P19397)” were -0.25 and -0.0711.
On to “CDC20_Q12834_313_VAEHHVATLSGHSQEVCGLR (UniProt Q12834)”, for which the “probe-labelled cysteine peptide fold change” value runs as follows: (10 µM) 0.0629; (50 µM) 0.0196.
“CDK5RAP3_Q96JB5_68_INAAIQDMPESEEIAQLLSGSYIHYFHCLR (UniProt Q96JB5)”: the “probe-labelled cysteine peptide fold change” value came to 0.106 (10 µM) and 0.283 (50 µM).
In the case of “CDC27_P30260_481_GYLALCSYNCK (UniProt P30260)”, the “probe-labelled cysteine peptide fold change” value was -0.155 (10 µM) and 0.268 (50 µM).
Take “CDK12_Q9NYV4_1009_CTAEQTLQSDFLK (UniProt Q9NYV4)”: the “probe-labelled cysteine peptide fold change” value reads like this: (10 µM) -0.0275; (50 µM) 0.00441.
For the target “CDK5RAP2_Q96SN8_1811_VSLPEDGQCPLHCEQIGEMK (UniProt Q96SN8)”, the “probe-labelled cysteine peptide fold change” value reads like this: (10 µM) 0.0699; (50 µM) -0.0886.
Taken in the same sequence, the figures for “CDKN2C_P42773_141_GDTACDLAR (UniProt P42773)” were 0.194 and 0.0643.
The matching figures for “CD44_P16070_53_TEAADLCK (UniProt P16070)”: -0.237 and -0.12.
Consider “CFAP20_Q9Y6A4_119_VKPFICTMPMR (UniProt Q9Y6A4)”, for which the “probe-labelled cysteine peptide fold change” value by setting is: (10 µM) 0.0829; (50 µM) -0.0715.
For the target “CD4_P01730_41_KGDTVELTCTASQK (UniProt P01730)”, the “probe-labelled cysteine peptide fold change” value reads like this: (10 µM) -0.413; (50 µM) -0.0824.
Taken in the same sequence, the figures for “CD68_P34810_207_VQGSCEGAHPHLLLSFPYGHLSFGFMQDLQQK (UniProt P34810)” were 0.0497 and 0.0854.

Source of the values: the supplement of paper PMC12067093, “Discovery and optimisation of a covalent ligand for TRIM25 and its application to targeted protein ubiquitination” (Chemical Science, 2025).
